From patent publication US20160045594A1, “DIRECTED IMMUNE STIMULATION” (Fred Hutchinson Cancer Research Center, priority 2013, published 2016)
Results are given in words; binding and its absence hold for the method and conditions named. Some binding calls cover weakened binding; strength is not graded here.

Sequences of proteins named here, by UniProt entry; tags and fusion partners are left off. Residues count along the entry.
UniProt P43630, residues 22-455: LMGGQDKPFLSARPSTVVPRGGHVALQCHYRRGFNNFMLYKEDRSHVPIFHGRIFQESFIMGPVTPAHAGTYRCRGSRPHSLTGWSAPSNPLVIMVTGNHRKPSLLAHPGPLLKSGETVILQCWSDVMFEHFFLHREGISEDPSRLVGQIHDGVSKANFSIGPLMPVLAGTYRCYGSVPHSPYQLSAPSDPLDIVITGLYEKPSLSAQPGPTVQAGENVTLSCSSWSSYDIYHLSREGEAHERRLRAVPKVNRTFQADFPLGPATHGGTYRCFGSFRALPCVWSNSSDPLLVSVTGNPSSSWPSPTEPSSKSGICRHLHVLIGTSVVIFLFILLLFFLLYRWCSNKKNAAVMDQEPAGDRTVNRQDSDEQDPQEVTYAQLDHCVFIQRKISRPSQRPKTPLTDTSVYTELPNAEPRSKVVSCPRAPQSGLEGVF

How the values were obtained:
[1] = molecular target: KIR3DL2, on cells (TALL-104 T cell line; NK clones) (human) (UniProt P43630); assay: tetramer staining of TALL-104 cells (MHC-I OC negative), flow cytometry
[2] = molecular target: KIR3DL2, on cells (TALL-104 T cell line; NK clones) (human) (UniProt P43630); assay: tetramer staining of resting NK clones, flow cytometry

B1: HLA-F tetramer (other, human, UniProt P30511 22-296, looked up)
MHC heavy: GSHSLRYFSTAVSRPGRGEPRYIAVEYVDDTQFLRFDSDAAIPRMEPREPWVEQEGPQYWEWTTGYAKANAQTDRVALRNLLRRYNQSEAGSHTLQGMNGCDMGPDGRLLRGYHQHAYDGKDYISLNEDLRSWTAADTVAQITQRFYEAEEYAEEFRTYLEGECLELLRRYLENGKETLQRADPPKAHVAHHPISDHEATLRCWALGFYPAEITLTWQRDGEEQTQDTELVETRPAGDGTFQKWAAVVVPPGEEQRYTCHVQHEGLPQPLILRWE
modifications: BirA biotinylated, bound to streptavidin-PE
notes: 1 µg BirA biotinylated monomer incubated with 1.5 µg streptavidin-PE
B1 was tested, and the binding [1] was “binds” and the binding [2] was “binds”.
